Reference: the supplement of paper PMC3682954
“And” between values parts separate entries of the source, which are not always exact repeats. Equal values may be shown once. Where a name gives a salt, the structure may show the parent alone. ± gives the standard deviation of the averaged measurements. This is one part of the list. Many values rest on one well or one pass, so single values are uncertain.

Test system: RAW 264.7
Assay: cell viability (MTT) relative to vehicle control; higher = more viable cells
Settings: stimulus: HMGB1 5 ug/ml, 18 h
[1] = compound concentration: 1 ug/ml

| Structure (SMILES) | cell viability (compound concentration: 3 uM) | cell viability [1] |
| --- | --- | --- |
| CN1[C@@H]2CC[C@H]1C[C@@H](OC(=O)c1c[nH]c3ccccc13)C2 | 98.8% | – |
| CN1[C@@H]2CC[C@H]1C[C@@H](OC(=O)c1c[nH]c3ccccc13)C2 [Tropisetron] | 101% | – |
| CN1[C@@H]2CC[C@H]1C[C@@H](OC(=O)c1c[nH]c3ccccc13)C2 [Tropisetron HCl] | 125% | – |
| Oc1ccc(/C=C/c2cc(O)cc(O)c2)cc1 | 98.8% | – |
| Oc1ccc(/C=C/c2cc(O)cc(O)c2)cc1 [Resveratrol] | 104 ± 25% | – |
| CCOC(=O)C1=C(COCCN)NC(C)=C(C(=O)OC)C1c1ccccc1Cl (stereo not drawn) [Amlodipine] | 107 ± 17% | – |
| CCOC(=O)C1=C(COCCN)NC(C)=C(C(=O)OC)C1c1ccccc1Cl (stereo not drawn) | 102% and 94.6% | – |
| CO[C@H]1O[C@@H]2COC(c3ccccc3)O[C@H]2[C@H](O)[C@H]1O (single isomer, unassigned; (+)) [(+)-(4,6-O-Benzylidene)methyl-alpha-D-glucopyranoside] | – | 99.9% |
| COc1ccc(/C=C/C(=O)Nc2ccccc2C(=O)O)cc1OC [Tranilast] | 108 ± 11% | – |
| COc1ccc(/C=C/C(=O)Nc2ccccc2C(=O)O)cc1OC | 96.9 ± 9.3% | – |
| NC(=O)c1ccc2[nH]ccc2c1 | 91% | – |
| CCCc1c(-c2ccc(O)cc2)nn(-c2ccc(O)cc2)c1-c1ccc(O)cc1 [1,3,5-tris(4-hydroxyphenyl)-4-propyl-1H-pyrazole] | 84.5% | – |
| Cc1c(N(C)C)c(=O)n(-c2ccccc2)n1C [Amidopyrine] | 98.8% | – |
| Cc1c(N(C)C)c(=O)n(-c2ccccc2)n1C | 109% | – |
| Oc1c(Cl)cc(Cl)c(Cl)c1Cc1c(O)c(Cl)cc(Cl)c1Cl | 77.2 ± 32% | – |
| Oc1c(Cl)cc(Cl)c(Cl)c1Cc1c(O)c(Cl)cc(Cl)c1Cl [Hexachlorophene] | 136% | – |
| NC(=S)NCCC[C@H](N)C(=O)O [L-Thiocitrulline] | – | 102% |
| O=C1c2c(O)cccc2C([C@@H]2O[C@H](CO)[C@@H](O)[C@H](O)[C@H]2O)c2cc(CO)cc(O)c21 (stereo partly drawn) | 106% | – |
| C=CCc1cccc(/C=N/NC(=O)CN2CCN(Cc3ccccc3)CC2)c1O | 117% | – |
| Cc1cccc(C)c1NC(=O)C(C)N (stereo not drawn) | 93.9% | – |
| Cc1cccc(C)c1NC(=O)C(C)N (stereo not drawn) [Tocainide hydrochloride] | 103 ± 13% | – |
| CCCCc1cc2ccccc2c(OCCN(C)C)n1 [Dimethisoquin hydrochloride] | 121% | – |

| Structure (SMILES) | cell viability (compound concentration: 3 uM) | cell viability [1] |
| --- | --- | --- |
| CC(C(=O)O)c1ccc2c(c1)[nH]c1ccc(Cl)cc12 (stereo not drawn) [Carprofen] | 94.9% | – |
| CC(C(=O)O)c1ccc2c(c1)[nH]c1ccc(Cl)cc12 (stereo not drawn) | 109% | – |
| CN(C)C(=O)C(CCN1CCC(O)(c2ccc(Cl)cc2)CC1)(c1ccccc1)c1ccccc1 | 102% | – |
| CN(C)C(=O)C(CCN1CCC(O)(c2ccc(Cl)cc2)CC1)(c1ccccc1)c1ccccc1 [Loperamide hydrochloride] | 97.9 ± 7.4% | – |
| CN(C)C(=O)C(CCN1CCC(O)(c2ccc(Cl)cc2)CC1)(c1ccccc1)c1ccccc1 [Loperamide] | 109% | – |
| COc1cc(C[C@@H](CO)[C@H](CO)Cc2ccc(O)c(OC)c2)ccc1O | 98.2% | – |
| C/C1=C2/[N-][C@H]([C@H](CC(N)=O)[C@@]2(C)CCC(=O)NC[C@@H](C)OP(=O)([O-])O[C@H]2[C@@H](O)[C@@H](n3cnc4cc(C)c(C)cc43)O[C@@H]2CO)[C@]2(C)N=C(/C(C)=C3N=C(/C=C4N=C1[C@@H](CCC(N)=O)C\4(C)C)[C@@H](CCC(N)=O)[C@]\3(C)CC(N)=O)[C@@H](CCC(N)=O)[C@]2(C)CC(N)=O.[CH2-][C@H]1O[C@H](n2cnc3c(N)ncnc32)[C@@H](O)[C@H]1O.[Co+3] | 104% | – |
| Nc1nc2[nH]cnc2c(=S)[nH]1 | 99.1 ± 5.7% | – |
| CC[N+](CC)(CC)CCOc1ccc(/C=C/c2ccccc2)cc1 | 116% | – |
| Cc1cc(O)c2c(c1)C(=O)c1cccc(O)c1C2=O [Chrysophanic acid] | – | 93.9% |
| NC(=O)c1cn(Cc2c(F)cccc2F)nn1 [Rufinamide] | 104% | – |
| CC(C(=O)O)c1ccc(-c2ccccc2)c(F)c1 (stereo not drawn) [Flurbiprofen] | 104 ± 11% | – |
| CC(C(=O)O)c1ccc(-c2ccccc2)c(F)c1 (stereo not drawn) | 110% and 93.8% | – |
| O=C(OCC(O)CO)c1ccccc1Nc1ccnc2cc(Cl)ccc12 (stereo not drawn) | 110% | – |
| O=C(OCC(O)CO)c1ccccc1Nc1ccnc2cc(Cl)ccc12 (stereo not drawn) [Glafenine hydrochloride] | 108% | – |
| O=c1c(O)c(-c2cccc(O)c2)oc2ccccc12 | – | 83% |
| C[C@H](CCC(=O)O)[C@H]1CC[C@H]2[C@@H]3[C@H](O)C[C@@H]4C[C@H](O)CC[C@]4(C)[C@H]3C[C@H](O)[C@]12C [Cholic acid] | – | 98% |
| O=c1ccc2cc(O)c(O)cc2o1 [Esculetin] | – | 112% |
| COc1cc([S+](C)[O-])ccc1-c1nc2cccnc2[nH]1 (stereo not drawn) [Sulmazole] | 104% | – |
| COc1cc([S+](C)[O-])ccc1-c1nc2cccnc2[nH]1 (stereo not drawn) | 111% | – |
| O=c1c(O)c(-c2ccc(O)cc2)oc2cc(O)ccc12 | – | 81.2% |
| CN1CCN(C2=Nc3cc(F)ccc3Cc3ccccc32)CC1 [Fluperlapine] | 94.9 ± 3.4% | – |

3 records picked at random from those above, as already listed:

| Structure (SMILES) | cell viability (compound concentration: 3 uM) | cell viability [1] |
| --- | --- | --- |
| CC(C(=O)O)c1ccc2c(c1)[nH]c1ccc(Cl)cc12 (stereo not drawn) [Carprofen] | 94.9% | – |
| NC(=O)c1cn(Cc2c(F)cccc2F)nn1 [Rufinamide] | 104% | – |
| C/C1=C2/[N-][C@H]([C@H](CC(N)=O)[C@@]2(C)CCC(=O)NC[C@@H](C)OP(=O)([O-])O[C@H]2[C@@H](O)[C@@H](n3cnc4cc(C)c(C)cc43)O[C@@H]2CO)[C@]2(C)N=C(/C(C)=C3N=C(/C=C4N=C1[C@@H](CCC(N)=O)C\4(C)C)[C@@H](CCC(N)=O)[C@]\3(C)CC(N)=O)[C@@H](CCC(N)=O)[C@]2(C)CC(N)=O.[CH2-][C@H]1O[C@H](n2cnc3c(N)ncnc32)[C@@H](O)[C@H]1O.[Co+3] | 104% | – |

The results go on:

| Structure (SMILES) | cell viability (compound concentration: 3 uM) | cell viability [1] |
| --- | --- | --- |
| C[C@H]1O[C@@H](O[C@H]2[C@@H](O)C[C@H](O[C@H]3[C@@H](O)C[C@H](O[C@H]4CC[C@@]5(C)[C@H](CC[C@@H]6[C@@H]5C[C@@H](O)[C@]5(C)[C@@H](C7=CC(=O)OC7)CC[C@]65O)C4)O[C@@H]3C)O[C@@H]2C)C[C@H](O)[C@@H]1O [Digoxin] | 114% | 102% |
| C[C@H]1O[C@@H](O[C@H]2[C@@H](O)C[C@H](O[C@H]3[C@@H](O)C[C@H](O[C@H]4CC[C@@]5(C)[C@H](CC[C@@H]6[C@@H]5C[C@@H](O)[C@]5(C)[C@@H](C7=CC(=O)OC7)CC[C@]65O)C4)O[C@@H]3C)O[C@@H]2C)C[C@H](O)[C@@H]1O | 95.5% | – |
| NC(N)=NC(N)=Nc1cccc(Cl)c1 [1-(m-Chlorophenyl)-biguanide hydrochloride] | 110% | – |
| CS(=O)(=O)OCCCCOS(C)(=O)=O [Busulfan] | 96.9% | – |
| CS(=O)(=O)OCCCCOS(C)(=O)=O | 103 ± 7% | – |
| Cc1c(NC(=O)c2cccnc2)c(=O)n(-c2ccccc2)n1C [Nifenazone] | 101% | – |
| Cc1c(NC(=O)c2cccnc2)c(=O)n(-c2ccccc2)n1C | 111% | – |
| O=C(/C=C/c1ccc(O)cc1)c1ccc(O)cc1O [Isoliquiritigenin] | 93% | – |
| COC1(C2=NCCN2)COc2ccccc2O1 (stereo not drawn) | 123% | – |
| OC[C@H]1O[C@@H](n2cnc3c(N[C@H]4CCC[C@@H]4O)ncnc32)[C@H](O)[C@@H]1O | 108% | – |
| NS(=O)(=O)c1cc2c(cc1C(F)(F)F)NCNS2(=O)=O | 100% | – |
| NS(=O)(=O)c1cc2c(cc1C(F)(F)F)NCNS2(=O)=O [Hydroflumethiazide] | 96.1% | – |
| CC(C)NC[C@@H](O)COc1ccc(CC(N)=O)cc1 [(R)-(+)-Atenolol] | 127% | – |
| NC(=O)CCCCC1CCSS1 (stereo not drawn) | 107% | – |
| COc1cc(OC)c2c(c1)OC(c1ccc(O)cc1)CC2=O (stereo not drawn) [4'-Hydroxy-5,7-dimethoxyflavanone] | – | 99.7% |
| Cc1ccc2nc(CN(CCN(Cc3nc4ccc(C)cc4[nH]3)Cc3nc4ccc(C)cc4[nH]3)Cc3nc4ccc(C)cc4[nH]3)[nH]c2c1 | 28.2% | – |
| CCC1(C)OC(=O)N(C)C1=O (stereo not drawn) | 106% | – |
| O=C(OOC(=O)c1ccccc1)c1ccccc1 | 108% | – |
| Nc1cc(=O)[nH]c(N)n1 [2,4-Diamino-6-pyrimidinone] | 98.7% | – |
| N[C@@H](Cc1c[nH]c2ccccc12)C(=O)O | 100% | – |
| N[C@@H](Cc1c[nH]c2ccccc12)C(=O)O [L-Tryptophan] | 116% | 100% |
| CC(O)Cn1cnc2c1c(=O)n(C)c(=O)n2C (stereo not drawn) | 109% | – |

| Structure (SMILES) | cell viability (compound concentration: 3 uM) | cell viability [1] |
| --- | --- | --- |
| CCn1c(=O)[nH]c2cc(Cl)c(Cl)cc21 | 95.1% | – |
| CC[C@@H]1C(=O)OC[C@@H]1Cc1cncn1C [Pilocarpine hydrochloride] | – | 92.3% |
| CC[C@@H]1C(=O)OC[C@@H]1Cc1cncn1C [Pilocarpine nitrate] | 114 ± 9.6% | – |
| CC[C@@H]1C(=O)OC[C@@H]1Cc1cncn1C [(+)-Pilocarpine hydrochloride] | 111% | – |
| CC[C@@H]1C(=O)OC[C@@H]1Cc1cncn1C | 112% and 95.4% | – |
| CC[C@@H]1C(=O)OC[C@@H]1Cc1cncn1C [Pilocarpine] | 109% | – |
| Cc1cc2c(C(C)C)c(O)c(O)c(C=Nc3ccc4c(c3)CCN4S(C)(=O)=O)c2c(O)c1-c1c(C)cc2c(C(C)C)c(O)c(O)c(C=Nc3ccc4c(c3)CCN4S(C)(=O)=O)c2c1O | – | 103% |
| CC[C@@]1(O)C[C@H](O[C@H]2C[C@H](N(C)C)[C@H](O[C@H]3C[C@H](O)[C@H](O[C@H]4CCC(=O)[C@H](C)O4)[C@H](C)O3)[C@H](C)O2)c2c(cc3c(c2O)C(=O)c2c(O)cccc2C3=O)[C@H]1C(=O)OC [Aclarubicin] | 6.69% | – |
| CN1C(=O)CC[C@H]1c1cccnc1 | 96.8% | – |
| CN1C(=O)CC[C@H]1c1cccnc1 [(-)-Cotinine] | 99 ± 7.2% | 89.2% |
| S=C(S)N1CCCC1 [Ammonium pyrrolidinedithiocarbamate] | 109% | – |
| CC(=O)CC(c1ccccc1)c1c(O)c2ccccc2oc1=O (stereo not drawn) [Warfarin] | 105% | – |
| CC(=O)CC(c1ccccc1)c1c(O)c2ccccc2oc1=O (stereo not drawn) | 102 ± 3% | – |
| NS(=O)(=O)c1cc2c(cc1Cl)NC(C1CC3C=CC1C3)NS2(=O)=O (stereo not drawn) | 99.3% | – |
| NS(=O)(=O)c1cc2c(cc1Cl)NC(C1CC3C=CC1C3)NS2(=O)=O (stereo not drawn) [Cyclothiazide] | 115% | – |
| O=C1NS(=O)(=O)c2ccccc21 | 105% | – |
| NC(N)=NC(=O)c1nc(Cl)c(N)nc1N | 95.3% | – |
| O=c1oc2c(O)c(O)cc3c(=O)oc4c(O)c(O)cc1c4c23 [Ellagic acid hydrate] | – | 95.4% |
| O=c1oc2c(O)c(O)cc3c(=O)oc4c(O)c(O)cc1c4c23 | 109 ± 6.9% | – |
